The M2OR odorant receptor database
The list shows a part of the results, in another mix than the full data. Calls are pooled over several reports, among them a noisy single-well screen. This is one part of the list.

Assays:
Details in all cases: stereoisomer not certain
[1] = system: T1, 
T1 sequence (whole entry): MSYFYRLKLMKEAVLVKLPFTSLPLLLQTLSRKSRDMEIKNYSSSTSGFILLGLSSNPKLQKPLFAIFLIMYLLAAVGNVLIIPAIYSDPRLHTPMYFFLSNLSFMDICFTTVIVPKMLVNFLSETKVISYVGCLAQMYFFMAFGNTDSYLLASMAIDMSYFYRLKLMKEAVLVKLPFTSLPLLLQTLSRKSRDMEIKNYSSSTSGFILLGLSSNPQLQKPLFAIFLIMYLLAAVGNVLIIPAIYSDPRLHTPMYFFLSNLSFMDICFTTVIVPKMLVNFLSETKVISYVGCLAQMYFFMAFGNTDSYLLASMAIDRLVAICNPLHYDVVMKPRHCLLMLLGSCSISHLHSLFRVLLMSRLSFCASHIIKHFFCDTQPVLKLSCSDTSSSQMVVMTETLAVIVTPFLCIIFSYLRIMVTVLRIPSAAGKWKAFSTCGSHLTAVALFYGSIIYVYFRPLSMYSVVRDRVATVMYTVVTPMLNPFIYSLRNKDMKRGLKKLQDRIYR
Method in brief: (§1)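 Values were gathered from published papers (main text and supplementary material), with extra details requested from the original authors when needed, and checked for typos and inconsistencies. Each receptor–molecule pair is called responsive (active) if the original authors judged the measured signal statistically different from baseline, and non-responsive (inactive) otherwise. Assay methods varied by source, often transient mammalian cell-line luciferase assays. Recorded details include cell line, G-protein, co-transfected protein and tags.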

O1020 = system: T2, O1020
T2 sequence (whole entry): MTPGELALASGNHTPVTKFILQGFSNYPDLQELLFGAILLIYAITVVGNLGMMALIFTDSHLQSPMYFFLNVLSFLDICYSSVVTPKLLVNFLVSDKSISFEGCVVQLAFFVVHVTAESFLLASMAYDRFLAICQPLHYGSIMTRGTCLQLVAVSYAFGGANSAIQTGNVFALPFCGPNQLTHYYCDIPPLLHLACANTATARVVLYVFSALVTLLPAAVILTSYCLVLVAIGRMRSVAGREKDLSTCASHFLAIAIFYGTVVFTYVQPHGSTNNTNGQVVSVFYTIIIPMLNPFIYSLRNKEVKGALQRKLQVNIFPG
Method in brief: as §1

O1052 = system: T3, O1052
T3 sequence (whole entry): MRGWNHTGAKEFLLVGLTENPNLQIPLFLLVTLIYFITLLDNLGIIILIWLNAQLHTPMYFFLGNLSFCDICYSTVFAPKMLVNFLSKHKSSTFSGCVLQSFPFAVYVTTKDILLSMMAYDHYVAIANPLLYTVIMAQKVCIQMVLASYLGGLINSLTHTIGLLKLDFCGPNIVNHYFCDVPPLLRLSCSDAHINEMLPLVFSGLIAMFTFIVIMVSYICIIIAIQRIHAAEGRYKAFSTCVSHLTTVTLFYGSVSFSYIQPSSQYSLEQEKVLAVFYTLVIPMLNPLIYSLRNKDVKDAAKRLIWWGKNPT
Method in brief: as §1

O10A2 = system: T4, O10A2
T4 sequence (whole entry): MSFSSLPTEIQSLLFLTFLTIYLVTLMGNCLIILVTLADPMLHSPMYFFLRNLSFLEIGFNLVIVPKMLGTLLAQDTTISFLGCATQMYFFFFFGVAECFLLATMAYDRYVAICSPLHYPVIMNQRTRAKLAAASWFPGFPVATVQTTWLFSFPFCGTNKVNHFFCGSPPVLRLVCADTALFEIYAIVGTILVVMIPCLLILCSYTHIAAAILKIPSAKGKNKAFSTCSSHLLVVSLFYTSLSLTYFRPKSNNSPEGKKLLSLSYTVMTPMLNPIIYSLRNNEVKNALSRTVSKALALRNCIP
Method in brief: as §1

O10A4 = system: T5, O10A4
T5 sequence (whole entry): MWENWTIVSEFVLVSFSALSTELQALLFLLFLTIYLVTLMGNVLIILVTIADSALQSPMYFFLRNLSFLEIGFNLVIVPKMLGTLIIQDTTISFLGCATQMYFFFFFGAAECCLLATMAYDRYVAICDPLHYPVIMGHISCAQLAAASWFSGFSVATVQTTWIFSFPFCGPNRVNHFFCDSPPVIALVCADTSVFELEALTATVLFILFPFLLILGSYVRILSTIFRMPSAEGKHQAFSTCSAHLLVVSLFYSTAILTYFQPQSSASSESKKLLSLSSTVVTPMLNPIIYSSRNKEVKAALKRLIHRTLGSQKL
Method in brief: as §1

O10A5 = system: T6, O10A5
T6 sequence (whole entry): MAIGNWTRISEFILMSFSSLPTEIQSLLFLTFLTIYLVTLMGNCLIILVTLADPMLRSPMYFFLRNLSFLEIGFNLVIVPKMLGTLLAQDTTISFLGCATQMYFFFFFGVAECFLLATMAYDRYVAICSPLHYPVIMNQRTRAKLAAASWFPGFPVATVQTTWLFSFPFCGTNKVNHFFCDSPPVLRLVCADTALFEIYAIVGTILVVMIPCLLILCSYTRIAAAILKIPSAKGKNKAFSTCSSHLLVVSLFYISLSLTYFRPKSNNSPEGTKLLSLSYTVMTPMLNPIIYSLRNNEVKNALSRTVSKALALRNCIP
Method in brief: as §1

O10AD = system: T7, O10AD
T7 sequence (whole entry): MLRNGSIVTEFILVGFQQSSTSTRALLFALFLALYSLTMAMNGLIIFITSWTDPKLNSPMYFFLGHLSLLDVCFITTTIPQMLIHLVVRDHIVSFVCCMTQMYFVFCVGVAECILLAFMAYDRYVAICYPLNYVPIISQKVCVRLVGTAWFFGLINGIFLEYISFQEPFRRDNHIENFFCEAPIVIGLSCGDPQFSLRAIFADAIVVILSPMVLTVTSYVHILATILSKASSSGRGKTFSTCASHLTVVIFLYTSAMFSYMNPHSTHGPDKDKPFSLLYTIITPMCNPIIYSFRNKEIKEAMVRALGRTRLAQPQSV
Method in brief: as §1

O10C1 = system: T8, O10C1
T8 sequence (whole entry): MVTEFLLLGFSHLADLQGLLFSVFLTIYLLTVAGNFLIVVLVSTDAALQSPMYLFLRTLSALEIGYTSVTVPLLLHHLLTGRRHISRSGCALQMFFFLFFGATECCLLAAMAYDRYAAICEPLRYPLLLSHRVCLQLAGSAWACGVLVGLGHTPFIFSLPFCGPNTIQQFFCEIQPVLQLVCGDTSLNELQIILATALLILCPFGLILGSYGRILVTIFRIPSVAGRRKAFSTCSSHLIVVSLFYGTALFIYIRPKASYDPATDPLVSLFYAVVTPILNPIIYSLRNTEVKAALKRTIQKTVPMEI
Method in brief: as §1

O10D3 = system: T9, O10D3
T9 sequence (whole entry): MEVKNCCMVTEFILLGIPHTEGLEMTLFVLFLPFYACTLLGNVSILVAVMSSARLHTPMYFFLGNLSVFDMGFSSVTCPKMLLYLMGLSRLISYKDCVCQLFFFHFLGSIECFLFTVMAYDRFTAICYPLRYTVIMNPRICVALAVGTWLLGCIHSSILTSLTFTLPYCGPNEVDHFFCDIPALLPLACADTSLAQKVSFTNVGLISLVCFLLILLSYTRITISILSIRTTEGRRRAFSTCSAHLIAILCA
Method in brief: as §1

O10G3 = system: T10, O10G3
T10 sequence (whole entry): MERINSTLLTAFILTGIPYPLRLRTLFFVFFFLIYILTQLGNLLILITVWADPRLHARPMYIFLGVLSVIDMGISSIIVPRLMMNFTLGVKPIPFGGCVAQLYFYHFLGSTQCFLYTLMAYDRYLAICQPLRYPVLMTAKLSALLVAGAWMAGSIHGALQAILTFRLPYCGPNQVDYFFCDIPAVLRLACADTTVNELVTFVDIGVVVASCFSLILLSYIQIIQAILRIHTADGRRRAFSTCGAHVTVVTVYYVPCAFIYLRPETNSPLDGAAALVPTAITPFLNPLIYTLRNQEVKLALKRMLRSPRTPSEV
Method in brief: as §1

O10G4 = system: T11, O10G4
T11 sequence (whole entry): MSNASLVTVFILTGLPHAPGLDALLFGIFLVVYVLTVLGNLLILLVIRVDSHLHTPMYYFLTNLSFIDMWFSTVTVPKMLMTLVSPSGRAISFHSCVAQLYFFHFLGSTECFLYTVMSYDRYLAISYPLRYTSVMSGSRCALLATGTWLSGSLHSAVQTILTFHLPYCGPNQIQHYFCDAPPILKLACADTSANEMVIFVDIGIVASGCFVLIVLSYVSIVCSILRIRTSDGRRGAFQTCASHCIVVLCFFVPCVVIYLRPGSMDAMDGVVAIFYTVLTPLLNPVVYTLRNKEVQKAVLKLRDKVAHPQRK
Method in brief: as §1

O10G9 = system: T12, O10G9
T12 sequence (whole entry): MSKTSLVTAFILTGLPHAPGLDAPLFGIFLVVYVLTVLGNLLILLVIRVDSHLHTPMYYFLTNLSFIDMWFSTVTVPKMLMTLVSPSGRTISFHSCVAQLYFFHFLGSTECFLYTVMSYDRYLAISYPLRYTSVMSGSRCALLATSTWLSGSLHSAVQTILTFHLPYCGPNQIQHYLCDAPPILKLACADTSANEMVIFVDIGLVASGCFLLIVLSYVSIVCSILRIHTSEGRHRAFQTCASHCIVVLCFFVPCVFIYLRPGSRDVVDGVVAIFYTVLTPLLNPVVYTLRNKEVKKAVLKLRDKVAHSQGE
Method in brief: as §1

O10H2 = system: T13, O10H2
T13 sequence (whole entry): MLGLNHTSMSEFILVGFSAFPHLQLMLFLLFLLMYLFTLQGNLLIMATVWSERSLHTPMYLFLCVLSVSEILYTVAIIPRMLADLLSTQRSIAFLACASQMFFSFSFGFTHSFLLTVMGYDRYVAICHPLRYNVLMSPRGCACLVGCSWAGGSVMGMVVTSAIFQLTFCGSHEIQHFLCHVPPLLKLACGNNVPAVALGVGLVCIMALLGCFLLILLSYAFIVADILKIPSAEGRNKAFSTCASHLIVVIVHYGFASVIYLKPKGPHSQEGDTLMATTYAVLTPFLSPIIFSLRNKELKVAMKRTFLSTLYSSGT
Method in brief: as §1

O10H5 = system: T14, O10H5
T14 sequence (whole entry): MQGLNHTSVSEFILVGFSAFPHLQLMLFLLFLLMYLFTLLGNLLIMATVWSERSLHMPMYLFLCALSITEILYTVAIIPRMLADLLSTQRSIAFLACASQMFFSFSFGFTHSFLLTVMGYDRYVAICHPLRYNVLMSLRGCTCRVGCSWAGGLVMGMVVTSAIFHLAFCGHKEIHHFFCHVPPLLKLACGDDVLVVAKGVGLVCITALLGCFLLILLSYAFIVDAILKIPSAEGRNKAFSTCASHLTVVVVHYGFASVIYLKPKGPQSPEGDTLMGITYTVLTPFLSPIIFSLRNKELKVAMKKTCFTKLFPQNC
Method in brief: as §1

O10J1 = system: T15, O10J1
T15 sequence (whole entry): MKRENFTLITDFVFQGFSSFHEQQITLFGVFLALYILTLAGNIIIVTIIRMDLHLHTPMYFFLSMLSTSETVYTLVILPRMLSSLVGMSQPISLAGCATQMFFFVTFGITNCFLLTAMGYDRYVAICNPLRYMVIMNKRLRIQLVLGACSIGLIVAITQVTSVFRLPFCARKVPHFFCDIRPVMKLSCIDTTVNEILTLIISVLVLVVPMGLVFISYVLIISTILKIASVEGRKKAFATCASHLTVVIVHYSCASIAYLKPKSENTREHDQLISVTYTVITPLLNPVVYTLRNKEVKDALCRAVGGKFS
Method in brief: as §1

O10J3 = system: T16, O10J3
T16 sequence (whole entry): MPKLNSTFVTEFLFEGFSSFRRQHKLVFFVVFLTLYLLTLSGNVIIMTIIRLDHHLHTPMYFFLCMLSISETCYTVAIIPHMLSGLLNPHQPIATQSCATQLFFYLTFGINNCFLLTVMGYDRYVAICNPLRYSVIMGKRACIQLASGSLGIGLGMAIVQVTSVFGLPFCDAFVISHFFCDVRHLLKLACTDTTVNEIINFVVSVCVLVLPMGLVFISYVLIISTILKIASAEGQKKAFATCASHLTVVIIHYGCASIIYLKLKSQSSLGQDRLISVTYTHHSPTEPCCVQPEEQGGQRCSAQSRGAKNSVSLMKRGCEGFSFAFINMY
Method in brief: as §1

O10J5 = system: T17, O10J5
T17 sequence (whole entry): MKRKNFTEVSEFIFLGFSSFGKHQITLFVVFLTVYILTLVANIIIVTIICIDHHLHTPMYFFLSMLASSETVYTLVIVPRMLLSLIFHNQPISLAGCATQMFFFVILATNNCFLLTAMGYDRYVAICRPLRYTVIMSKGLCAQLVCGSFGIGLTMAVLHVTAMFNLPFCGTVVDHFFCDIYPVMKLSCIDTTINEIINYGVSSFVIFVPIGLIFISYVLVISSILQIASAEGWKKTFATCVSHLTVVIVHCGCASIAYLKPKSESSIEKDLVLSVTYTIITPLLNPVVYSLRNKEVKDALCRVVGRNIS
Method in brief: as §1

O10P1 = system: T18, O10P1
T18 sequence (whole entry): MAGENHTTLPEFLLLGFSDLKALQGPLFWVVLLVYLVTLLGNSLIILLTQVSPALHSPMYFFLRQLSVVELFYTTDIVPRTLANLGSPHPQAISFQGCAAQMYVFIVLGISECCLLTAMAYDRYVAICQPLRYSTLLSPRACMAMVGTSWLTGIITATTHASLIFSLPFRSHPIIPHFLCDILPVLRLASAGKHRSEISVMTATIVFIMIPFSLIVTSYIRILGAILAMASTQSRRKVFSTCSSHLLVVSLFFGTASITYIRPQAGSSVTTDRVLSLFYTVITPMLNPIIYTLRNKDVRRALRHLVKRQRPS
Method in brief: as §1

O10Q1 = system: T19, O10Q1
T19 sequence (whole entry): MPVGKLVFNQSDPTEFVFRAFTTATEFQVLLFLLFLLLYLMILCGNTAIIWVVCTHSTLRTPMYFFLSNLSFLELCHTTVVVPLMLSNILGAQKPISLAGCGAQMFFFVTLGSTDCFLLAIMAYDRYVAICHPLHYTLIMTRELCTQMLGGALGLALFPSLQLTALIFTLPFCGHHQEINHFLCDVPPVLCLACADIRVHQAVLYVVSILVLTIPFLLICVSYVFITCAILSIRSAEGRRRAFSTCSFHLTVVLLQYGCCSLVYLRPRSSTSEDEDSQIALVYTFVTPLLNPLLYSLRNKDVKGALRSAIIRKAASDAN
Method in brief: as §1

A0A140T8K0 = system: A0A140T8K0
Method in brief: as §1

Measured: odorant receptor agonist call

CS
not listed: A0A140T8K0
inactive: all other assays above

CCOc1cc(C=O)ccc1O
inactive: A0A140T8K0

CCC(C)=O
inactive: all assays above

CCCCOC(C)=O
not listed: A0A140T8K0
inactive: all other assays above
